In PMC9588061:
No constants are given. Whether binding was seen depends on the method and setting. Binding seen in cells or lysates may run through a third protein. These calls come from enrichment with a bait or labelling near it, and not all partners need be listed.

Protein sequences, listed by entry. Tags and fused reporters are not part of them. Lines headed by an entry give the natural chain unless they say otherwise; changes in a name come on top.
UniProt F7W428: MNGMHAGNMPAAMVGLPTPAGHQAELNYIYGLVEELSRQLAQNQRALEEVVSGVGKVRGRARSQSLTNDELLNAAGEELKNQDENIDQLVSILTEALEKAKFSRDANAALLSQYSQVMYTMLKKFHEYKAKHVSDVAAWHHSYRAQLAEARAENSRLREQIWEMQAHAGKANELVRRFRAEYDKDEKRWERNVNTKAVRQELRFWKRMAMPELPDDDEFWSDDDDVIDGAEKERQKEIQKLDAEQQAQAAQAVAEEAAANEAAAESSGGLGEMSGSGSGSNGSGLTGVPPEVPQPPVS
UniProt F7W245: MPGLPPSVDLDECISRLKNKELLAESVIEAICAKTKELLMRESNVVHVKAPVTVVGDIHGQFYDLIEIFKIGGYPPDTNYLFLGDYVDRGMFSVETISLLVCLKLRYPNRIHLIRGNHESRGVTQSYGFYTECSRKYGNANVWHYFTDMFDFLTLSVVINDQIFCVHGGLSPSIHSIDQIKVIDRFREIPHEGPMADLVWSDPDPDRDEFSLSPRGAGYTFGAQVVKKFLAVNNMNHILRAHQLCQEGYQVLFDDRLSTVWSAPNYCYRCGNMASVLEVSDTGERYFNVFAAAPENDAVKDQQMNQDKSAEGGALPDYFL

Biological target: SCI1-L-TurboID fusion protein (STRIPAK complex interactor 1 fused to TurboID) (S. macrospora) (UniProt F7W428)
Assay: proximity labelling; BioID with SCI1-L-TurboID as bait in S. macrospora Δsci1; liquid SWG (50 nM biotin) 4 days at 27 °C, boosted with 10 µM biotin for 30 min; extract denatured in 4% SDS, biotinylated proteins enriched on Strep-Tactin Sepharose, SDS-PAGE, tryptic in-gel digest, LC-MS with label-free quantification; control: free L-TurboID strain diluted 1:6 with wild-type extract; four biological replicates

| binding | Molecule |
| --- | --- |
| binds | SmPP2Ac1 (from UniProt F7W245) (enzyme) |
| binds | PRO11 (protein, UniProt Q70M86 1-845) MGTNGVHVSFGAGHEMGGVMGNGSGQPPATEYTLQGVMRFLQTEWHRHERDRNAWEIEKQEMRARIANLEGQARRADATQKALKRYVSILEKKVKEQSAALKSGGKEKGVEDEAEAEDNKTKLDRSALIQEKLRPNTKLSGAPNEAENVEIGPPDDESARNELKTFLDQCQAEFTYLMVTPANPQPPRESPPLPILDDFREGEALNQQLEQSYQRSQQSQIRDLLAQQAAAANATNVAAVQSQQQQPQQQQHAVGPRPQTNQPPKGYGELAQGAPMERSSRGQQLHDILKSGETPDWSASMQSQPVEEPTSALSKAPPMVRGDGREPAVPKSASTTDAWDFNESNFQDPNAMPQPTPQQSFSSRPDTDAFPSAENLTKSPNRGALSHRRKSSSGMARRRSAEHELSLGSLQQKAEGTMFKFRFGLRGHLDVVRTVIFSGGGSPGEPEICTAGDDGLVKRFHIPDRHIGQRNADGDLDVAADFTHRGHSGAVLSLASWSPSPNFSTGGRAQGDGWIFSGGQDATIRVWERGRVDPKATLDGHTDAVWALCVLPTNLGAIFGQTNSHGPPDRILLVSGAADGTVKVWAVSAPPQLTSPQPGPGRRGPGGRVRGNSMSSGSAFPSSPQPTTASNSPFHHTLVHTIKRANSEASPTCITALSPNGETFAVSYADAAIIVYDTRSGEEIGTMASLDTYDGTNNTAVNAVVATTVGLDQTQGPGGEDESGGGPTGGGRSMAGSGVEGTIISGHEDRYIRFFDANSGQCTYNMLAHPGSVSSLSLSPDGRELVSAGHDMSLRFWSLETRSCTQEMTCHRSMRGEGVCAVVWSQDGRWVVSSGGDGMVKVYAR |
